From paper PMC2808209

Key:
GST-syntaxin 13ΔTM [1] = experiment: pull-down; GST-syntaxins lacking the transmembrane domain immobilized on GSH beads, lysate of COS-7 cells transfected with GFP-GRASP-1(594–837); anti-GFP blot; only the target purified
[2] = target: GST-Rab11 (GTPγS charged); experiment: pull-down; binding assay of 35S-labeled GRASP-1 with GTPγS-charged GST-Rab proteins; only the target purified
GST-Rab3 (GTPγS charged) = experiment: as above
GST-Rab4 = experiment: as above
GST-Rab5 (GTPγS charged) = experiment: as above
GST-Rab7 (GTPγS charged) = experiment: as above
GST-syntaxin 13ΔTM [3] = experiment: pull-down; immobilized GST-syntaxin 13ΔTM with 35S-labeled GRASP-1 from a coupled in vitro transcription-translation reaction; only the target purified
Flag-Rab4 = experiment: co-IP; COS-7 cells co-expressing FLAG-tagged Rab and myc-GRASP-1; anti-FLAG immunoprecipitates, eluted with FLAG peptide, Western blot

B1: GFP-GRASP-1(594–837) (domain or fragment, UniProt Q9JHZ4-1 594-837)
chain: DGQRILEKKGSAVLKDLKRQLHLERKRADKLQERLQEILTNSKSRTGLEELVLSEMNSPSRTQTGDSSSVSSFSYREILKEKESSAIPARSLSSSPQAQPPRPAELSDEEVAELFQRLAETQQEKWMLEEKVKHLEVSSASMAEDLCRKSAIIETYVMDSRIDVSVAAGHTDRSGLGSVLRDLVKPGDENLREMNKKLQNMLEEQLTKNMHLHKDMEVLSQEIVRLSKECVGSPDPDLEPGEAN
For B1, the binding (GST-syntaxin 13ΔTM [1]) was “binds”.

B2: 35S-labeled GRASP-1 (protein, UniProt Q9JHZ4-1 1-837)
chain: MAQALSEEEFQRMQTQLLELRTNNYQLSDELRKNGVELSSLRQKVAYLDKEFSKAQKALSKSKKAQEVEVLLSEKEMLQAKLHSQEEDFRLQNSTLMAEFSKLCSQLEQLELENRQLKEGVPGAAGPHVDGELLRLQAENTALQKNMAALQERYGKEAVRPSAVSEGQGDPPGDVLPISLSPMPLAEVELKWEMEREEKKLLWEQLQGLESSKQAETSRLQEELAKLSEKLKKKQESFCRLQTEKETLFNDSRNKIEELQQRKEADLKAQLARTQKLQQELEAANQSLAELRDQRQGERLEHAAALRALQDQVSSQSADAQEQVEGLLAENNALRTSLAALEQIQTAKTQELNMLREQNTELAAELKHRQADYEELMGQKDDLNSQLQESLRANSRLLEQLQEMGQEKEQLIQDLQEARKSAEKRKVMLDELAMETLQEKSQHKEELGAVRLRHEKEMLGVRARYERELRELHEDKKRQEEELRGQIREEKARTRELENLQHTVEELQAQVHSMDGAKGWFERRLKEAEESLLQQEQEQEETLKQCREQHAAELKGKEEELQNVRDQLQQAQEERDGHVKTISNLKQEVKDTVDGQRILEKKGSAVLKDLKRQLHLERKRADKLQERLQEILTNSKSRTGLEELVLSEMNSPSRTQTGDSSSVSSFSYREILKEKESSAIPARSLSSSPQAQPPRPAELSDEEVAELFQRLAETQQEKWMLEEKVKHLEVSSASMAEDLCRKSAIIETYVMDSRIDVSVAAGHTDRSGLGSVLRDLVKPGDENLREMNKKLQNMLEEQLTKNMHLHKDMEVLSQEIVRLSKECVGSPDPDLEPGEAN
modifications: 35S-labeled
For B2, the binding [2] was “no binding”, the binding (GST-Rab3 (GTPγS charged)) was “no binding” and the binding (GST-Rab4) was “binds”. The binding (GST-Rab5 (GTPγS charged)) was “no binding”, the binding (GST-Rab7 (GTPγS charged)) was “binds weakly” and the binding (GST-syntaxin 13ΔTM [3]) was “binds”.

B3: myc-GRASP-1, full length (1-837) (protein, UniProt Q9JHZ4-1 1-837)
chain: B2 chain
With B3 the binding (Flag-Rab4) was “binds”.

No constants are given. Whether binding was seen depends on the method and setting. In cells and extracts the contact can be indirect. For some assays here: A result given as binding can be weak or reduced; the word gives no strength. For some assays here: Sequences can lack the tags named with a protein.
